Source: ChEMBL document CHEMBL3988442, “University of Dundee, Small-Polar-MMV Screening Library” (2021).

T. brucei: 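Whole-parasite assay of Trypanosoma brucei over 72 hours; the read-out is not stated. Concentration: 30 µM. Direction is inferred from retests: higher values go with stronger inhibition. Values scatter widely below zero; nearly all retest evidence comes from the higher of the two concentrations used. Of about 64,000 compounds tested this way, about 940 (1.5%) reached 50% or more in at least one test.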
Toxoplasma: 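Assay of Toxoplasma gondii numbers, read through their beta-galactosidase reporter with a colour substrate. Compounds at 10 µM. The record gives no direction; the compounds picked for IC50 retests had high values, so higher reads as fewer parasites. Size under these conditions: about 67,000 compounds, about 260 of them at 50% or above in at least one test.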

Each number is a percent effect as filed.
The controls that fix the scale are not given in the record; negative values are as filed.
Compounds were drawn at random from those tested, without regard to their results.
A dash means the value is not listed here; it may have been measured.

| # | Compound | T. brucei | Toxoplasma |
|---|---|---|---|
| 1 | `Cc1cccc(N2CCC3(CCCN(C(=O)Cc4cccnc4)C3)C2)n1` (centres undefined) | -20.74 | 1.668 |
| 2 | `Cc1nn(C)c(C)c1C1COCCN1C(=O)CC(C)(C)C` (centres undefined) | -11.65 | -14.97 |
| 3 | `Cc1c(C(=O)NCCC(=O)N2CCOCC2)sc2ccc(F)cc12` | -29.66 | 8.039 |
| 4 | `Cc1nc[nH]c1CN1CCOC(CCNC(=O)c2ccsc2)C1` (centres undefined) | 3.946 | -0.5172 |
| 5 | `O=C(COCc1ccccc1)Nc1ccccn1` | -13.59 | 12 |
| 6 | `O=C(O)C(F)(F)F.[H][C@@]12CN(CC3CCOC3)C[C@]1([H])OCCN2c1cccnc1` (some centres undefined) | -43.01 | -3.89 |
| 7 | `CC(NC(=O)NCc1cscn1)c1ccc(N2CCOCC2)cc1` (centres undefined) | -33.8 | -2.731 |
| 8 | `CN(CC1(CO)CCC1)c1nc2c(c(=O)[nH]1)Cc1ccccc1OC2` | -15.65 | -10.85 |
| 9 | `Cc1c(C(=O)N2CCCC2c2cnn(C)c2)nnn1-c1ccccc1` (centres undefined) | 24.92 | 3.985 |
| 10 | `CCNC(=O)c1cc(OC)c(OC)cc1N(C)S(C)(=O)=O` | - | 5.222 |
| 11 | `Cc1cc(C)n(CC(=O)N2CCCC2c2cc3cccnc3[nH]2)n1` (centres undefined) | 5.088 | 4.648 |
| 12 | `CN1CCN(S(=O)(=O)c2ccc3c(c2)CN(C(=O)C(C)(C)C)CC3)CC1` | -14.44 | -20.77 |
| 13 | `CCN(Cc1ccco1)C(C)c1nc(C)no1` (centres undefined) | -56.54 | 4.37 |
| 14 | `Cl.Cn1nc(C2CCN(C(=O)CCN3CCOCC3)CC2)c2cccnc21` | -9.75 | 33.05 |
| 15 | `[H][C@]12CC[C@]([H])(CN(Cc3cscn3)C1)N(C(=O)Nc1ccc(C)cc1)C2` | 35.2 | -2.512 |
| 16 | `CC1CN(C)CCN1C(=O)NCCCn1ccnc1` (centres undefined) | -19.38 | -5.428 |
| 17 | `CN(C)[C@@H]1CO[C@H](CNC(=O)CC(C)(C)C)[C@H]1O` | 2.772 | 7.511 |
| 18 | `CC(=O)N1CCN(c2ccnc(C)n2)CC(COc2ccccc2)C1` (centres undefined) | 9.205 | -2.884 |
| 19 | `OC1CCN(CCCNc2ncccn2)CC1` | 4.3 | 5.693 |
| 20 | `CC(C)CNC(=O)C(C)N1CCN(C2CCN(C(C)C)CC2)CC1` (centres undefined) | -54.89 | 27.86 |
| 21 | `CN(Cc1ccsc1)C(=O)CNC(=O)N1CCc2ccccc2C1` | -73.62 | - |
| 22 | `CCOc1ncnc2c1CCN(Cc1cccs1)CC2.O=C(O)C(F)(F)F` | 11.12 | 2.709 |
| 23 | `COCCN(C)C(=O)c1nc2c(s1)CCCN2C(=O)C1CC1` | -99.42 | 12.11 |
| 24 | `O=C(O)C(F)(F)F.O=C(c1ccncc1)N1CCOC2(COCCN(c3cncnc3)C2)C1` (centres undefined) | -4.333 | 14.47 |
| 25 | `Cn1cc(CN2CCOCC3(C2)CN(c2ccccc2)C(=O)CO3)cn1.O=C(O)C(F)(F)F` (centres undefined) | 6.222 | -6.453 |
| 26 | `Cn1cc(CN2CCc3ccc(=O)n(CC4CC4)c3CC2)cn1` | -14.21 | -18.94 |
| 27 | `CC(=O)N1CCC(c2cc3c(ncn3C)c(-c3cnn(C)c3)n2)CC1` | -47.35 | 2.606 |
| 28 | `CCCN1CCCCC1C(=O)Nc1ccc(-c2nnc[nH]2)cc1` (centres undefined) | 9.596 | 13.86 |
| 29 | `Cc1noc(Cl)c1CCC(=O)N1CCN(c2ncccn2)CC1` | -22.8 | 0.06277 |
| 30 | `CCc1nc(CCn2ccnc2-c2nccn2C)no1` | 18 | -5.107 |
| 31 | `O=C(NCc1ccccn1)NCC(O)c1ccccc1C(F)(F)F` (centres undefined) | -43.25 | 7.896 |
| 32 | `O=C(Cn1cc(I)cn1)N1CCOCC1` | 11.54 | -7.942 |
| 33 | `CN(C)C(=O)C1CCC2(CCNCC2)C1.O=C(O)C(F)(F)F` (centres undefined) | -5.665 | -34.36 |
| 34 | `CC(CNCc1ccc(F)cc1)Oc1ccccn1.Cl` (centres undefined) | -26.32 | -3.514 |
| 35 | `CCC(CO)N(Cc1ccsc1)CC1CC1` (centres undefined) | -4.585 | -3.659 |
| 36 | `O=C(NCc1ccc2c(c1)OCO2)Nc1cccnc1N1CCCC1` | -44.95 | 0.1654 |
| 37 | `CC(C)CN1CCn2nc(CNc3ncnc4[nH]cnc34)cc2C1` | 27.57 | 6.571 |
| 38 | `CC(C)NC(=O)N1CCN(C(=O)C(C)C)CC2(CC(=O)N(C)C2)C1` (centres undefined) | -7.736 | 0.1918 |
| 39 | `Cc1nc2c(c(=O)n1C)CCN(C(=O)Cn1cccc1)CC2` | -1.082 | -5.831 |
| 40 | `O=C(O)CCc1cc2n(n1)CCCN(C(=O)c1cc3ccccc3s1)C2` | -4.111 | 4.623 |
| 41 | `CC(C)c1nnc2n1CC(CNCc1cccnc1)CC2` (centres undefined) | - | -0.6905 |
| 42 | `CC(C)NC(=O)C1CCN(C(C)C(=O)N2CCc3sccc3C2)CC1` (centres undefined) | 8.177 | -4.09 |
| 43 | `Cc1ccsc1CNCCCOc1ccccn1` | - | 8.223 |
| 44 | `CCNc1cc2c(nn1)CCN(C(=O)Cc1c(C)noc1C)C2` | -25.67 | -1.695 |
| 45 | `O=C(c1ccncc1)N1CCCN(Cc2nnc(C3CC3)o2)CC1` | -29.77 | 1.726 |
| 46 | `CN(C)S(=O)(=O)N1CCN(CC2CCOc3ccccc3C2)CC1` (centres undefined) | -35.93 | 11.27 |
| 47 | `CCc1nc(CN(C)C2CCN(Cc3nnc(C4CCC4)o3)C2)no1` (centres undefined) | - | -1.836 |
| 48 | `O=C(c1cccs1)N1CCOCC2(C1)CN(c1ccccc1)C(=O)CO2` (centres undefined) | -6.926 | -5.165 |
| 49 | `Cc1c(Cl)c(C(=O)N2C[C@@H](C(=O)O)[C@H](c3cccnc3)C2)nn1C` | -30.89 | 2.656 |
| 50 | `Cc1cnn(C2CCCN(C(=O)c3ccccc3-n3cnnn3)C2)c1` (centres undefined) | -8.846 | -10.64 |

Some entries from above, unchanged:

* CCc1nc(CCn2ccnc2-c2nccn2C)no1 : T. brucei: 18%; Toxoplasma: -5.107%
* Cc1cccc(N2CCC3(CCCN(C(=O)Cc4cccnc4)C3)C2)n1 (centres undefined) : T. brucei: -20.74%; Toxoplasma: 1.668%
* CN(C)S(=O)(=O)N1CCN(CC2CCOc3ccccc3C2)CC1 (centres undefined) : T. brucei: -35.93%; Toxoplasma: 11.27%
* Cn1cc(CN2CCOCC3(C2)CN(c2ccccc2)C(=O)CO3)cn1.O=C(O)C(F)(F)F (centres undefined) : T. brucei: 6.222%; Toxoplasma: -6.453%
* O=C(O)C(F)(F)F.O=C(c1ccncc1)N1CCOC2(COCCN(c3cncnc3)C2)C1 (centres undefined) : T. brucei: -4.333%; Toxoplasma: 14.47%